Source: paper PMC3897609, “Heparanase Interacts with Resistin and Augments Its Activity” (PLoS ONE, 2014)
Results are given in words; binding and its absence hold for the method and conditions named. Binding seen in cells or lysates may run through a third protein. A yes stands for co-enrichment or nearness to the bait. Other partners may have been found. Sequences can lack the tags named with a protein.

By UniProt entry, the sequences of proteins in these tests, tags left out. Residues count along the entry.
UniProt Q9HD89, residues 19-108: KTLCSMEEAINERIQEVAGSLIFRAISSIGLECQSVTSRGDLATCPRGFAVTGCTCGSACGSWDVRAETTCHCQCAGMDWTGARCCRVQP

Molecular target: T1, cMyc-tagged 65-kDa latent heparanase (human, UniProt Q9Y251 36-543)
T1 construct: heparanase, human, 65-kDa latent (unprocessed) form; also called cMyc-latent heparanase; latent cMyc-heparanase; source: medium conditioned by heparanase infected CHO cells, purified (heparin column)
T1 sequence (looked up): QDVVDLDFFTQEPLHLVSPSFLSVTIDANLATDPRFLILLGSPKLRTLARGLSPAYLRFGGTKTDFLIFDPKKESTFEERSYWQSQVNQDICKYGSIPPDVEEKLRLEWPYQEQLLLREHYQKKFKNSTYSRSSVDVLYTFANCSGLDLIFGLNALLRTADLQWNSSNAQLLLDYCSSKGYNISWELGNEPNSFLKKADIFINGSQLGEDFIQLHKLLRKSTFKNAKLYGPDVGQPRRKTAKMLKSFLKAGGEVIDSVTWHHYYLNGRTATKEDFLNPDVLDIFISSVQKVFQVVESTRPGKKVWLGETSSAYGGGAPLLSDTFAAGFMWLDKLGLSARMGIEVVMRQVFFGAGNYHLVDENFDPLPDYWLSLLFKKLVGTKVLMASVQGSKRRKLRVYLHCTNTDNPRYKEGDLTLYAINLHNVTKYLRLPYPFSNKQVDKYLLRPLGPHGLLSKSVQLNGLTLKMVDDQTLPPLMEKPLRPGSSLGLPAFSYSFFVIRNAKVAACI
Experiment: affinity purification with mass spectrometry; cMyc-latent heparanase covalently immobilised on Affigel-10 Sepharose beads; 500 fold concentrated crude human urinary proteins passed at 4°C; wash phosphate buffer pH 7.4 with 0.65 M NaCl; elution 25 mM citric acid pH 2.2; bands from non-reducing SDS-PAGE analysed by LC-MS/MS; only the target purified

## urinary resistin (RETN) (from UniProt Q9HD89 19-108)
  binding: binds
